Literature values in patent publication US9107918B2, “Method for determining sensitivity to irinotecan and use thereof” (Kabushiki Kaisha Yakult Honsha, priority 2009, dated 2015).
At least one structure is not confirmed: it was looked up by name or label, or the drawing left a doubt.

Conditions: cited from earlier work

In the case of `CCc1c2c(nc3ccc(O[C@@H]4O[C@H](C(=O)O)[C@@H](O)[C@H](O)[C@H]4O)cc13)-c1cc3c(c(=O)n1C2)COC(=O)[C@]3(O)CC` [SN-38G, SN-38 glucuronate conjugate], the cytotoxicity is listed as “no cytotoxicity”.
